Data: patent US7770577B2, “Methods and devices for treating lung dysfunction” (priority 2001, dated 2010)
At least one structure is not confirmed: it was looked up by name or label, or the drawing left a doubt.

Legend:
[1] = system: CF airway epithelial cell cultures; experiment: SCN− efflux in CF airway epithelial air-liquid interface cultures; type: cell-based, human; details: dibutryl cAMP (0.5 mM) and forskolin (10 μM) together
Method: (§1) J. Respir. […] Experiments comparing non-CF and CF cells were performed with cultures grown simultaneously and matched in passage number, the number of cells plated, and days in culture. […] To initiate experiments, apical surfaces of the cultures were rapidly washed three times with Dulbecco's PBS (50 μl for 6.5 mm filters or 500 μl for 24 mm filters) containing 100 μM amiloride. Following a third wash, additional aliquots were placed on the apical surface for sequential 2 min incubations at 37° C. in humidified 5% CO2.
(§2) Bronchial epithelial cells were obtained from either CF or non-CF lungs at the time of transplant or organ donation. Cells were passaged twice (thereby de-differentiated) and then cultured at an air-liquid interface for re-differentiation. […] J. Respir. […] Following three rapid PBS washes of the apical surface, additional PBS aliquots were placed on the apical surface for sequential 2 min incubations. […] Airway epithelial cell cultures from three separate CF patients were compared to three non-CF control cultures.

[2] = system: non-CF airway epithelial cell cultures; experiment: SCN− efflux / apical accumulation in non-CF airway epithelial air-liquid interface cultures; type: cell-based, human; details: dibutryl cAMP (0.5 mM) and forskolin (10 μM) together
Method: as §1, §2

Structure (SMILES): C=C[C@@]1(C)CC(=O)[C@]2(O)[C@@]3(C)[C@@H](O)CCC(C)(C)[C@@H]3[C@H](O)[C@H](OC(C)=O)[C@@]2(C)O1 [forskolin]
- SCN^− efflux after stimulation of PKA [1]: did not
- SCN^− efflux after stimulation of PKA [2]: increase in efflux
